Our source for the binding values is article PMC4556665.

The target of assay [1] is T1, ANKS6 (endogenous, mouse kidney) (mouse (endogenous in kidney)) (UniProt Q6GQX6).
T1 sequence: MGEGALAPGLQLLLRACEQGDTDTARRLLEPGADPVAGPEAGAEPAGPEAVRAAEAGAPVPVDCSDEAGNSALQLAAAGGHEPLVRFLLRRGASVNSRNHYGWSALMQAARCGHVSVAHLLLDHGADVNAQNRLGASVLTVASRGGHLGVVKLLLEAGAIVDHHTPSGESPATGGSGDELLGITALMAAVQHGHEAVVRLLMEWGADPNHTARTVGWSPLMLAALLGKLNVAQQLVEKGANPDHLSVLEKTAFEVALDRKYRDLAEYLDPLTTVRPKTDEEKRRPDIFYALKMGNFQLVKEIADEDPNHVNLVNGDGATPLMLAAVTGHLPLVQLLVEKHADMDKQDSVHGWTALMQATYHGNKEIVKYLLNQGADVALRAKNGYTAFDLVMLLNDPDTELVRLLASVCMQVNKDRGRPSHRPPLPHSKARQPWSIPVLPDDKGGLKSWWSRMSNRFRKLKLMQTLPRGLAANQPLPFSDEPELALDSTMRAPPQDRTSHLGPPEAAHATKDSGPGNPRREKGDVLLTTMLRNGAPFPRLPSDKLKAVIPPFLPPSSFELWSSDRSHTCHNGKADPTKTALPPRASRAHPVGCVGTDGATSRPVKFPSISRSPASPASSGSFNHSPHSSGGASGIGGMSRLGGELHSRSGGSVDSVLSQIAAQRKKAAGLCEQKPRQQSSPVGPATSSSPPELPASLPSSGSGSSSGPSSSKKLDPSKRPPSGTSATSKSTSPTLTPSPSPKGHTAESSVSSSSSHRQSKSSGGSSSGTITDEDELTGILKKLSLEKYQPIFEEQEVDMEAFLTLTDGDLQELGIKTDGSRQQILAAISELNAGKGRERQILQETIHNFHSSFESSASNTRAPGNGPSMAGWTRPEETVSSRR
In words: co-IP; 750 ug of kidney protein extracts with anti-Anks3 or anti-Anks6 antibody or control IgGs overnight at 4°C; Protein A or G microbeads, MAC ucolumns; Western blot.

The target in assay [2] is T2, ANKS3 (endogenous, mouse kidney) (mouse (endogenous in kidney)) (UniProt Q9CZK6).
T2 sequence: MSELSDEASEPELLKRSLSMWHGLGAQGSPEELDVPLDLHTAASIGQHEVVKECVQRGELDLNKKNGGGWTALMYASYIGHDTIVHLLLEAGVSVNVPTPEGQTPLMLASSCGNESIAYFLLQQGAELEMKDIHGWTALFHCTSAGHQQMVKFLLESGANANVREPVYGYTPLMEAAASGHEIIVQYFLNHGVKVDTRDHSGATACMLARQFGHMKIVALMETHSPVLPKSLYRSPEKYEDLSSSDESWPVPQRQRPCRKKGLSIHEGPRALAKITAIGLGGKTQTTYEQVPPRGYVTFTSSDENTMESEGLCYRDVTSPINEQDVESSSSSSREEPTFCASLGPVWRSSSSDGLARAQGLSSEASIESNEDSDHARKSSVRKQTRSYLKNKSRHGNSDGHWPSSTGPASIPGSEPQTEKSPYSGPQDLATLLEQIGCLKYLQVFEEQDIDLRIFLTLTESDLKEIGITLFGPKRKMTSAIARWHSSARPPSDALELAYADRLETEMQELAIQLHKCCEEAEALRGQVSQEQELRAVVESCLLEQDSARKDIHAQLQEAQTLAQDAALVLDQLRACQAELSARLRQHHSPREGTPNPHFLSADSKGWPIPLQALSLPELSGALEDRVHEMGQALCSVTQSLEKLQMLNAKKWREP
The assay is described as above.

These are yes or no findings as the source states them, for the method shown. Binding seen in cells or lysates may run through a third protein. Some binding calls cover weakened binding; strength is not graded here.

B1: ANKS3 (endogenous, mouse kidney) (protein, UniProt Q9CZK6 1-655)
chain: MSELSDEASEPELLKRSLSMWHGLGAQGSPEELDVPLDLHTAASIGQHEVVKECVQRGELDLNKKNGGGWTALMYASYIGHDTIVHLLLEAGVSVNVPTPEGQTPLMLASSCGNESIAYFLLQQGAELEMKDIHGWTALFHCTSAGHQQMVKFLLESGANANVREPVYGYTPLMEAAASGHEIIVQYFLNHGVKVDTRDHSGATACMLARQFGHMKIVALMETHSPVLPKSLYRSPEKYEDLSSSDESWPVPQRQRPCRKKGLSIHEGPRALAKITAIGLGGKTQTTYEQVPPRGYVTFTSSDENTMESEGLCYRDVTSPINEQDVESSSSSSREEPTFCASLGPVWRSSSSDGLARAQGLSSEASIESNEDSDHARKSSVRKQTRSYLKNKSRHGNSDGHWPSSTGPASIPGSEPQTEKSPYSGPQDLATLLEQIGCLKYLQVFEEQDIDLRIFLTLTESDLKEIGITLFGPKRKMTSAIARWHSSARPPSDALELAYADRLETEMQELAIQLHKCCEEAEALRGQVSQEQELRAVVESCLLEQDSARKDIHAQLQEAQTLAQDAALVLDQLRACQAELSARLRQHHSPREGTPNPHFLSADSKGWPIPLQALSLPELSGALEDRVHEMGQALCSVTQSLEKLQMLNAKKWREP
For B1, the binding result in assay [1] is on record as “binds”.

B2: ANKS6 (endogenous, mouse kidney) (protein, UniProt Q6GQX6 1-883)
chain: MGEGALAPGLQLLLRACEQGDTDTARRLLEPGADPVAGPEAGAEPAGPEAVRAAEAGAPVPVDCSDEAGNSALQLAAAGGHEPLVRFLLRRGASVNSRNHYGWSALMQAARCGHVSVAHLLLDHGADVNAQNRLGASVLTVASRGGHLGVVKLLLEAGAIVDHHTPSGESPATGGSGDELLGITALMAAVQHGHEAVVRLLMEWGADPNHTARTVGWSPLMLAALLGKLNVAQQLVEKGANPDHLSVLEKTAFEVALDRKYRDLAEYLDPLTTVRPKTDEEKRRPDIFYALKMGNFQLVKEIADEDPNHVNLVNGDGATPLMLAAVTGHLPLVQLLVEKHADMDKQDSVHGWTALMQATYHGNKEIVKYLLNQGADVALRAKNGYTAFDLVMLLNDPDTELVRLLASVCMQVNKDRGRPSHRPPLPHSKARQPWSIPVLPDDKGGLKSWWSRMSNRFRKLKLMQTLPRGLAANQPLPFSDEPELALDSTMRAPPQDRTSHLGPPEAAHATKDSGPGNPRREKGDVLLTTMLRNGAPFPRLPSDKLKAVIPPFLPPSSFELWSSDRSHTCHNGKADPTKTALPPRASRAHPVGCVGTDGATSRPVKFPSISRSPASPASSGSFNHSPHSSGGASGIGGMSRLGGELHSRSGGSVDSVLSQIAAQRKKAAGLCEQKPRQQSSPVGPATSSSPPELPASLPSSGSGSSSGPSSSKKLDPSKRPPSGTSATSKSTSPTLTPSPSPKGHTAESSVSSSSSHRQSKSSGGSSSGTITDEDELTGILKKLSLEKYQPIFEEQEVDMEAFLTLTDGDLQELGIKTDGSRQQILAAISELNAGKGRERQILQETIHNFHSSFESSASNTRAPGNGPSMAGWTRPEETVSSRR
For B2, in assay [2], the binding result is “binds”.
